US20240293427A1, “PHAR[…] FOR […]-ADMINISTRATION” (G2GBIO, INC., priority 2021, published 2024)
At least one structure is not confirmed: it was looked up by name or label, or the drawing left a doubt.

System: inflammation at the administration site
Assay: Inflammation by semaglutide microspheres with or without co-administration of meloxicam (H&E)
Assay type: in vivo, SD (Sprague-Dawley) rats
Conditions: meloxicam […] with B-6 3.6 mg/head

`Cc1cnc(NC(=O)C2=C(O)c3ccccc3S(=O)(=O)N2C)s1` [meloxicam] was tested, and the “inflammation caused by semaglutide microspheres” value was “effectively reduced”.
